# Data as given in PubChem BioAssay AID686937 (Drosophila RNAi Screening Center, 2013).
# Screen: 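Knock-downs that reduce output of a secreted reporter enzyme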 (primary screen)
# Cells: Drosophila S2 cells expressing secreted horseradish peroxidase
# Knock-down reagent: long dsRNA against Drosophila genes
# Timing: about 5.5 days (5 days dsRNA, then 12 h reporter induction)
# Treatment: reporter expression induced after 5 days of dsRNA, read 12 h later; inducer not stated
# Measurement: 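After 5 days of dsRNA and 12 h of reporter induction, medium peroxidase read by chemiluminescence and scored as per-plate z-score; higher values mean more reporter released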
# Direction: z-score: higher = more reporter secreted into medium
# The screen tested about 23,000 reagents; below is an unselected part of those with a known target gene and a result. 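Reduced-secretion tags in replicate 1 do not always agree with the z-scores; no criterion for assigning the tags was given.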 A plus sign joins genes that one reagent is predicted to hit. Not given: the amount of reagent.
target,amplicon,"z-score, replicate 1","z-score, replicate 2","z-score, replicate 3","z-score, replicate 4","phenotype, replicate 1"
CG32391,DRSC08865,0.52,-0.09,,,
CG15082,DRSC06513,0.3,-0.07,,,
CG5174,DRSC06920,-2.85,-3.02,,,reduced secretion
CG8028,DRSC20075,-0.05,0.27,,,
CG34452,DRSC09387,0.3,0.16,,,
Ric,DRSC07532,0.38,-0.39,,,
CG14712,DRSC14935,-2.34,-2.03,,,reduced secretion
CG4066,DRSC15541,0.5,0.96,,,
IFT46,DRSC02462,0.41,0.38,,,
CG31517,DRSC13010,0.29,0.15,,,
asrij,DRSC04175,0.34,0.24,,,
mRpL41,DRSC06257,0,0.18,,,
CG17047,DRSC06648,0.33,0.52,,,
CG1628,DRSC18109,0.21,0.43,,,
CG5921,DRSC17431,0.53,0.51,,,
CG5921,DRSC18390,0.23,0.26,,,
l(2)34Fc,DRSC01910,-0.06,0.2,,,
Cdc23,DRSC02708,-0.67,-0.55,,,
CG31211,DRSC14953,-0.47,0.4,0.48,0.15,
CG31211,DRSC15344,0.48,0.84,,,
CG31211,DRSC21478,-0.62,-0.25,,,
Socs36E,DRSC02455,0.18,0.41,0.24,0.35,
Polr2F,DRSC12366,-3.7,-5.36,,,reduced secretion
CG13847,DRSC14697,-0.02,-0.54,,,
Crz,DRSC16615,0.29,0.31,,,
CG15412,DRSC00427,0.3,0.11,,,
CG6765,DRSC10706,0.02,0.28,,,
Nost,DRSC18037,-0.95,-1.02,,,
Nost,DRSC18338,0.03,-0.24,,,
grsm,DRSC14165,0.4,0.46,,,
grsm,DRSC14843,0.26,0.28,,,
CG30196,DRSC04156,0.17,0.2,,,
Pcyt2,DRSC08531,0.06,0.06,,,
CG18789,DRSC02696,0.81,0.69,,,
CG7747,DRSC07038,0.26,0.46,,,
CG14795,DRSC18513,-1.44,0.32,,,
faf,DRSC16942,0.47,0.39,,,
CG40583 (retired record),DRSC20938,0.33,0.68,,,
Bx42,DRSC17743,-5.6,-3.63,,,reduced secretion
CG14989,DRSC08448,0.49,0.31,,,
CG42694,DRSC03955,0.16,0.15,,,
Elo68beta,DRSC09860,0.4,0.51,,,
Spag1,DRSC15331,0.25,0.38,,,
CG13654,DRSC14654,0.21,0,,,
CG2065,DRSC06813,0.3,0.53,,,
CG2065,DRSC21328,2.23,1.87,,,
Trpgamma,DRSC03626,0.54,0.44,,,
trol,DRSC17714,0.46,0.49,,,
trol,DRSC17718,-2.53,0.57,,,reduced secretion
trol,DRSC18613,0.18,0.33,,,
trol,DRSC18814,0.23,0.26,,,
Esp,DRSC16664,0.2,0.27,,,
MED18,DRSC18549,-0.06,0.01,,,
CG3632,DRSC19137,0.58,-0.2,,,
CG3632,DRSC19871,0.31,0.32,,,
CG11777,DRSC06081,0.43,0.26,,,
E(var)3-9,DRSC14451,0.29,0.31,,,
Pex14,DRSC11754,0.48,0.53,,,
CG9902,DRSC20212,-0.23,0.2,,,
CG17470,DRSC02621,-7.51,0.33,,,reduced secretion
CG13360,DRSC18536,0.17,0.61,-0.16,-0.23,
CG2218,DRSC15428,0.43,0.5,,,
crc,DRSC03513,-0.15,0.18,,,
Tsp66A + CG42661 + CG42660,DRSC10233,0.37,0.13,,,
Acbp4,DRSC11023,0.17,0.37,,,
GramD1B,DRSC00426,-0.15,-0.15,,,
GramD1B,DRSC00591,0.7,0.65,,,
CG12395,DRSC19453,0.18,0.15,,,
asRNA:CR43426,DRSC11587,0.32,-0.03,,,
CG7131,DRSC16203,0.12,0.3,,,
Vav,DRSC20384,0.49,0.44,,,
CG30022,DRSC22405,-0.21,0.01,,,
CG4424,DRSC15576,0.17,0.36,,,
Tip60,DRSC18661,-0.82,-1.19,,,
Sdhaf3,DRSC15020,-0.82,0.12,,,
Dlip3,DRSC07401,0.52,0.39,,,
FMRFa,DRSC07428,0.17,0.26,,,
metro,DRSC06341,0.42,-0.21,,,
metro,DRSC06725,-0.15,0.12,,,
CG42541,DRSC17973,0.47,0.33,,,
CG42541,DRSC18119,-5.94,-2.72,,,reduced secretion
CG42541,DRSC18120,0.49,0.63,,,
